Test results: paper PMC7242393
These are yes or no findings as the source states them, for the method shown. In cells and extracts the contact can be indirect. Some entries that bind do so weakly or less than the wild type.

Amino acid sequences for entries named in this document (tags omitted).
UniProt O15169: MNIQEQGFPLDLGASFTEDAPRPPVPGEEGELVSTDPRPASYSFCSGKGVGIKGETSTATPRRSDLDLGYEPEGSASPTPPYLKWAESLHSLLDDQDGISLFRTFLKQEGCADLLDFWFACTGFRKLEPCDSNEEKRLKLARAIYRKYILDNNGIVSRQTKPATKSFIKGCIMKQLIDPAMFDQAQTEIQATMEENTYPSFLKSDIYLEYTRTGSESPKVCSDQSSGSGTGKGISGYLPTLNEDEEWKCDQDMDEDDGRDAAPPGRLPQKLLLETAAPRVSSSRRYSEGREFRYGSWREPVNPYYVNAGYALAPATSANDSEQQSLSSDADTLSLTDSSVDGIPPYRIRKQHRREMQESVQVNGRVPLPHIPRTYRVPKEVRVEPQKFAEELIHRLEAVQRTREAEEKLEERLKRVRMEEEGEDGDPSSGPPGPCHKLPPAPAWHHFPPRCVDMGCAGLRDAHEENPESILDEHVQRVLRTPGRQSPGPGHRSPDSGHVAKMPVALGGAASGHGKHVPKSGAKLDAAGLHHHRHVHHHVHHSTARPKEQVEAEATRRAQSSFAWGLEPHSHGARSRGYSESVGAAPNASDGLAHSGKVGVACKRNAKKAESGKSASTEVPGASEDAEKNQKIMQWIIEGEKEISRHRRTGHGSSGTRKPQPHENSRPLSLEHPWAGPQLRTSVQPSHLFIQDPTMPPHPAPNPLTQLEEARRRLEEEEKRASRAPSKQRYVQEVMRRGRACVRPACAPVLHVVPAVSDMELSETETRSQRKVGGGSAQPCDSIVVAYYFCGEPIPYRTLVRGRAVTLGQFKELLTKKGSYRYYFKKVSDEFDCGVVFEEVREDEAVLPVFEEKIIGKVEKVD
UniProt O00429: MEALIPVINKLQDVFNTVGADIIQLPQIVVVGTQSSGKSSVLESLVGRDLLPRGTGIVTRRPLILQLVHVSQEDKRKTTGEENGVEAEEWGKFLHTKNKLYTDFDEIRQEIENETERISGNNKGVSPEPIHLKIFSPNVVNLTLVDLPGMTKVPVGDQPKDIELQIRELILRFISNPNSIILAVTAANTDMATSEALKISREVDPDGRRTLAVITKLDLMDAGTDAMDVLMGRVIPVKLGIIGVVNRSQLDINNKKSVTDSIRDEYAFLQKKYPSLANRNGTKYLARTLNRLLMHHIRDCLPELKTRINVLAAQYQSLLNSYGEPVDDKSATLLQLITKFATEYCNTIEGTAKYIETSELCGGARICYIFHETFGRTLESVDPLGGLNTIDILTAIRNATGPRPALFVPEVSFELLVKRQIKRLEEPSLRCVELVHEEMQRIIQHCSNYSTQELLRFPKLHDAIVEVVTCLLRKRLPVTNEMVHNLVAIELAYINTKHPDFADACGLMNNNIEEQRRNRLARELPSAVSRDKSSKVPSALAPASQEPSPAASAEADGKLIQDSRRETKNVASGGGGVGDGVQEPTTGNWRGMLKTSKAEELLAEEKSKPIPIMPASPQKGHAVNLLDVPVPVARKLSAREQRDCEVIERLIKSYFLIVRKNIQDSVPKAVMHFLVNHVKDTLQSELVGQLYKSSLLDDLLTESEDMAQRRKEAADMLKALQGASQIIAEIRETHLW

Target: Axin1 (human (endogenous in ARPE-19)) (UniProt O15169)
Experiment: co-IP; endogenous proteins in ARPE-19 cell lysate; 3 ug Axin1 antibody or control rabbit IgG at 4 °C overnight, protein A and G magnetic beads 4 h at 4 °C; lysis buffer 20 mM Tris-HCl pH 8, 137 mM NaCl, 1% IGEPAL CA-630, 0.1% Triton X-100, 2 mM EDTA; western blot

dynamin-related protein 1 (Drp1) (from UniProt O00429 1-736)
binding: binds
